Reference: patent US12697402B2, “Detection of colonic neoplasia in vivo using near-infrared peptide targeted against overexpressed cMet” (THE REGENTS OF THE UNIVERSITY OF MICHIGAN, priority 2019, dated 2026)
“Also recorded” adds a separate entry of the source. At least one peptide structure holds a part that was inferred or is arguable (an end, a ring closure or a residue). Peptide text beside a SMILES is read from it. * marks the point of attachment. X1 = CN1/C(=C/C=C/C=C/C2=[N+](CCCCCC(=O)*)c3ccc4ccccc4c3C2(C)C)C(C)(C)c2c1ccc1ccccc21

Chains of the proteins cited; added tags and fusions are not shown. Residues count along the entry.
UniProt P08581, 25-1390: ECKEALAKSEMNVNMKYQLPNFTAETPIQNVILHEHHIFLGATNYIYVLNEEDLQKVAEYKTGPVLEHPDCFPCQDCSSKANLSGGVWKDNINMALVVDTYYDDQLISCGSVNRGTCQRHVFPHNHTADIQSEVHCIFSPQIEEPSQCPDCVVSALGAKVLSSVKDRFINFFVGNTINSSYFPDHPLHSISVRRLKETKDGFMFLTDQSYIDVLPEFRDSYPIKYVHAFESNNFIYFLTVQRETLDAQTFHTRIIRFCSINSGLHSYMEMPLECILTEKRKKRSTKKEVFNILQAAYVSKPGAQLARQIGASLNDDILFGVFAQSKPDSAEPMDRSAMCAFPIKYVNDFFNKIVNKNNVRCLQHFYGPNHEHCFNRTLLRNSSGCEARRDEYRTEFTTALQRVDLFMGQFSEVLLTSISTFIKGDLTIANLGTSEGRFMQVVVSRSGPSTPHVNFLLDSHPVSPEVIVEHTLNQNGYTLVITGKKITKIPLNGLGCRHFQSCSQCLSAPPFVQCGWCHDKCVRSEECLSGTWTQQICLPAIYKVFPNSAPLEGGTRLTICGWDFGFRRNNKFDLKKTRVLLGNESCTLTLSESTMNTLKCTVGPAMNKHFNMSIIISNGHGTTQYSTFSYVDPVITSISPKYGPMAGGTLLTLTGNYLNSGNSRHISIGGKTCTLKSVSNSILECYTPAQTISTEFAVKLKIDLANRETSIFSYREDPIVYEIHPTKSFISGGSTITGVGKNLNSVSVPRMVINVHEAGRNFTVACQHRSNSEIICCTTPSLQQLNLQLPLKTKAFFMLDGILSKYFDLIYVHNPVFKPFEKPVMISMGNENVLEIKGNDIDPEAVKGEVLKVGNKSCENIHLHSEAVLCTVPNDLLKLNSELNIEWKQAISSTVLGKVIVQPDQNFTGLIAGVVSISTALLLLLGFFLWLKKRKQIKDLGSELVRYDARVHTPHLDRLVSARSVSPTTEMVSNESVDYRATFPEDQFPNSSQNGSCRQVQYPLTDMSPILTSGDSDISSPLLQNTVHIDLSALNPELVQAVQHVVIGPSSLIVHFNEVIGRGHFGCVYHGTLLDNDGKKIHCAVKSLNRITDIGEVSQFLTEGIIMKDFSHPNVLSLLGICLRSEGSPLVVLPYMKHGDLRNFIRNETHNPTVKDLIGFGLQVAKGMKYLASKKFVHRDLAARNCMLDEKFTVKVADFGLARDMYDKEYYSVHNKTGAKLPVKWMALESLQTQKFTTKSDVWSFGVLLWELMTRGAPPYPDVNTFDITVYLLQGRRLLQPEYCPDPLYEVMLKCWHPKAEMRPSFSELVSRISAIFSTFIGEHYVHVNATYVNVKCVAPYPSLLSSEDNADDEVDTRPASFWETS

How the values were obtained:
cMet [1] = target: T1, cMet (Homo sapiens, UniProt P08581); test: siRNA knockdown of cMet in HT29 cells, binding by confocal microscopy; type: cell-based
Description: (§1) HT29, SW480, S114 and NIH3T3 cells were inoculated in 12-well cell culture plates with circle glass coverslips to about 80% confluence. The cells were blocked with 1×PBS plus 2% BSA for 1 hour at 4° C., then were incubated with 5 μM peptides for 10 min at RT in the dark, washed thrice, and fixed with 4% PFA for 5 min, washed with 1×PBS, then mounted on glass slides with ProLong Gold reagent containing DAPI (Invitrogen, Waltham, MA). As positive control, after blocking with 2% BSA for 1 hour at 4° C., A 1:3000 dilution of primary monoclonal rabbit anti-cMet antibody (Cell Signaling Technology, #8198) was incubated with cells overnight at 4° C. Afterward, the cells were washed thrice with 1×PBS and further incubated with a 1:500 dilution of AF488-labeled secondary goat ant-rabbit immunoglobulin G antibody (Life Technologies, #A-11029) for 1 hour at RT, washed thrice, and then mounted on glass slides with ProLong Gold reagent containing DAPI. Confocal fluorescence images were collected using a 63× oil-immersion objective (Leica SP5 Inverted 2-Photon FLIM Confocal). Fluorescence intensities from five cells in two independent images were quantified using custom Matlab (Mathworks) software.
We knocked down cMet protein levels with siRNAs and then evaluated the binding of QQT*-Cy5.5 and TLQ*-Cy5.5 to the surface of si-cMet-transfected HT29 cells to validate specific peptide binding. We used siRNA1 (SASI_Hs01_00133002, Sigma) for HT29, siRNA2 (SASI_WI_00000001, Sigma) for S114, and MISSION® siRNA #1 Universal Negative Control (SIC001, Sigma) for a negative control. We transfected cells with Lipofectamine 2000 (11668027, Invitrogen) per manufacturer instructions. Knockdown of cMet was confirmed by Western blot (FIG. 18). The cells were incubated with 5 μM peptide for 5 min at RT (i.e., room temperature), and then fixed and mounted on glass slides with ProLong Gold reagent containing DAPI, as previous described. As positive control, a 1:3000 dilution of primary monoclonal rabbit anti-cMet antibody (Cell Signaling Technology, #8198) was incubated with cells, fixed and mounted on glass slides with ProLong Gold reagent containing DAPI. Confocal fluorescence images were collected using a 63× oil-immersion objective (Leica SP5 Inverted 2-Photon FLIM Confocal).

[2] = tested on: colonic polyps (dysplasia); test: Macroscopic ex vivo fluorescence imaging of excised CPC;Apc mouse colon; details: after topical administration
cMet [3] = target: T1, cMet; test: Immunofluorescence of human proximal colon specimens
[4] = tested on: phosphorylation of cMet, AKT and ERK1/2; test: Effect of peptide on cell signaling (Western blot); type: cell-based, human; details: HT29 cells; 10, 30, 120 min; HGF 25 ng/mL; peptide 5 or 100 μM
Description: HT29 cells were treated with serum-free medium overnight for starvation before incubation with hHGF (hHGF, 294-HG-005, R&D) or peptides. Recombinant Human HGF Protein was added to HT29 cells at concentrations of 25 ng/ml for 10, 30, or 120 min in separate wells. QQT*-Cy5.5 and TLQ*-Cy5.5 were added at concentrations of 5 or 100 μM for 10, 30, and 120 min. Peptides were added at concentrations of 5 and 100 μM for 10, 30, or 120 min. Cells were then washed with 1×PBS and lysed with Pierce RIPA buffer containing Halt Phosphatase Inhibitor Cocktail (Thermo Fisher) and Halt Protease Inhibitor Cocktail (Thermo Fisher). Protein contents were quantified by Bicinchoninic Acid Assay (BCA). Anti-cMet antibody (Cell Signaling, #8198), phospho-cMet (Tyr1234/1235) antibody (Cell Signaling, #3077), anti-AKT antibody (Cell Signaling, #4691), anti-phospho-AKT antibody (Cell Signaling, #9271), anti-ERK1/2 antibody (Abcam, #ab17942), anti-phospho-ERK1/2 antibody (Abcam, #ab50011), and anti-tubulin antibody (Invitrogen, #32-2600) were used per manufacturer's instructions.

cMet [5] = target: T1, cMet; test: Immunofluorescence of human colon organoids / organoid xenograft sections
cMet [6] = target: T1, cMet; test: Confocal microscopy of binding to S114 (cMet+) versus NIH3T3 (cMet−) cells; type: cell-based, mouse; design: expressed in transfected cells; host or cells: S114 (NIH 3T3 mouse fibroblasts transformed with human HGF/SF and Met); NIH3T3 as cMet- control
Excerpt: Human CRC cell lines HT29, SW480, CCD841 and mouse embryonic fibroblast cell line NIH 3T3 were obtained from the American Type Culture Collection (ATCC, Manassas, VA). The S114 cell line comprised NIH 3T3 cells transformed with human HGF/SF and Met and expressed cMet. We used McCoy's 5A Medium (Gibco) for culturing HT29 cells and Dulbecco's Modified Eagle Medium (Gibco) was used to culture SW480, NIH3T3 and S114 cells. Eagle's Minimum Essential Medium (Lonza) was used for CCD841 cells. All cells were cultured at 37° C. in 5% CO2, and supplemented with 10% fetal bovine serum (FBS). The cells were passaged using 0.25% trypsin containing EDTA (Mediatech, Manassas, VA). Cell numbers were quantitated on a hemocytometer. Peptide synthesis reagents were obtained from Anaspec (Anaspec, Fremont, CA) or AAPPTEC (AAPPTEC, Louisville, KY), were of the highest grade available (>99% purity), and were used without further purification. Solvents and other chemical reagents were purchased from Sigma-Aldrich (St. Louis, MO) unless otherwise noted.
as §1

[7] = IF staining of human proximal colon tissues
[8] = tissue sections, co-staining with cMet antibody
[9] = confocal microscopy, 5 μM peptide

## CC(C)C[C@H](NC(=O)[C@H](CO)NC(=O)[C@H](Cc1c[nH]c2ccccc12)NC(=O)[C@H](CC(N)=O)NC(=O)[C@@H](NC(=O)[C@H](CCC(N)=O)NC(=O)[C@@H](N)CCC(N)=O)[C@@H](C)O)C(=O)NCC(=O)NCC(=O)NCC(=O)N[C@@H](CO)C(=O)N[C@@H](CCCCNC(=O)CCCCC[N+]1=C(/C=C/C=C/C=C2/N(C)c3ccc4ccccc4c3C2(C)C)C(C)(C)c2c1ccc1ccccc21)C(N)=O [QQT*-Cy5.5] (H-QQTNWSLGGGSK(X1)-NH2)
cMet [1]; HT29 cells, knockdown experiment
  intensity for QQT*-Cy5.5 versus TLQ*-Cy5.5: 8.1 fold
cMet [1]; HT29 siCL versus sicMet
  intensity reduction with knockdown of cMet: 2.9 fold
cMet [1]; HT29 transfected with siCL non-targeting siRNA, confocal microscopy, 5 μM peptide
  binding to surface of control HT29 cells: bind strongly; also recorded: strong binding
cMet [1]; HT29 transfected with sicMet-targeting siRNA, confocal microscopy
  fluorescence intensity / binding with HT29 knockdown cells: Reduced fluorescence intensities
[2]
  fluorescence intensity from polyps ex vivo: increased intensity
cMet [3]; FFPE human colon specimens
  mean fluorescence intensity, adenoma or SSA versus HP or normal colon: significantly greater
cMet [3]; [7]
  area-under-curve (AUC), either adenoma or SSA from normal and HP: 0.94
  sensitivity, either adenoma or SSA from normal and HP: 88%
  specificity, either adenoma or SSA from normal and HP: 82%
cMet [3]; SSA n=13, HP n=7
  mean fluorescence intensity SSA versus HP: 2.2 fold change
cMet [3]; SSA n=13, normal n=10
  mean fluorescence intensity SSA versus normal: 2.8 fold change
cMet [3]; adenoma n=21, HP n=7
  mean fluorescence intensity adenoma versus HP: 2.4 fold change
cMet [3]; adenoma n=21, normal n=10
  mean fluorescence intensity adenoma versus normal: 3.0 fold change
cMet [3]; each histological classification
  co-localization of peptide and antibody binding: strong
cMet [3]; human colon specimens
  AUC for distinguishing SSA from normal and HP (ROC): 0.95
  AUC for distinguishing adenoma from normal and HP (ROC): 0.94
  Pearson's correlation coefficient ρ with anti-cMet-AF488, SSA: 0.79
  Pearson's correlation coefficient ρ with anti-cMet-AF488, adenoma: 0.82
  Pearson's correlation coefficient ρ with anti-cMet-AF488, hyperplastic polyp (HP): 0.86
  Pearson's correlation coefficient ρ with anti-cMet-AF488, normal mucosa: 0.75
  sensitivity for distinguishing SSA from normal and HP (ROC): 92%
  sensitivity for distinguishing adenoma from normal and HP (ROC): 86%
  specificity for distinguishing SSA from normal and HP (ROC): 88%
  specificity for distinguishing adenoma from normal and HP (ROC): 88%
[4]
  phosphorylation of cMet and downstream AKT and ERK1/2: no change in phosphorylation; also recorded: no effect
cMet [5]; confocal microscopy / tissue sections
  binding / IF staining of adenoma human colon organoids: strong intensity and bind
cMet [5]; [8]
  IF staining of SSA organoids: strong intensity
  IF staining of normal colon organoids: minimal signal
cMet [6]
  intensity of QQT*-Cy5.5 versus TLQ*-Cy5.5 for S114 cells: 7.0 fold change
  mean intensity S114 versus NIH3T3 cells: 2.4 fold change
cMet [6]; [9]
  binding to surface of S114 cells (cMet+): strong binding
  signal / binding to NIH3T3 cells (cMet−): reduced signal
